According to the supplement of paper PMC12819154, “High-throughput peptide-centric local stability assay extends protein–ligand identification to membrane proteins, tissues and bacteria” (Nature Structural & Molecular Biology, 2025):
Some of the results follow. Most values lie at the level of the controls, where differences are scatter.

Sequences of proteins named here, by UniProt entry; tags and fusion partners are left off. A change or cut given only in a name is not applied to a line headed by its entry.
UniProt Q6NUK4: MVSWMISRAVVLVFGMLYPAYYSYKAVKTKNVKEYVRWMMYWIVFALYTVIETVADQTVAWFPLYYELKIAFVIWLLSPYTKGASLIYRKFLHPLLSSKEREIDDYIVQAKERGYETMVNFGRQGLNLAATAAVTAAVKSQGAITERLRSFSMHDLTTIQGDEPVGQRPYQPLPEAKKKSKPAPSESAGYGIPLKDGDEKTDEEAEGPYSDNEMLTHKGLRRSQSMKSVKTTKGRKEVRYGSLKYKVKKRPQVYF
UniProt Q6PJG6: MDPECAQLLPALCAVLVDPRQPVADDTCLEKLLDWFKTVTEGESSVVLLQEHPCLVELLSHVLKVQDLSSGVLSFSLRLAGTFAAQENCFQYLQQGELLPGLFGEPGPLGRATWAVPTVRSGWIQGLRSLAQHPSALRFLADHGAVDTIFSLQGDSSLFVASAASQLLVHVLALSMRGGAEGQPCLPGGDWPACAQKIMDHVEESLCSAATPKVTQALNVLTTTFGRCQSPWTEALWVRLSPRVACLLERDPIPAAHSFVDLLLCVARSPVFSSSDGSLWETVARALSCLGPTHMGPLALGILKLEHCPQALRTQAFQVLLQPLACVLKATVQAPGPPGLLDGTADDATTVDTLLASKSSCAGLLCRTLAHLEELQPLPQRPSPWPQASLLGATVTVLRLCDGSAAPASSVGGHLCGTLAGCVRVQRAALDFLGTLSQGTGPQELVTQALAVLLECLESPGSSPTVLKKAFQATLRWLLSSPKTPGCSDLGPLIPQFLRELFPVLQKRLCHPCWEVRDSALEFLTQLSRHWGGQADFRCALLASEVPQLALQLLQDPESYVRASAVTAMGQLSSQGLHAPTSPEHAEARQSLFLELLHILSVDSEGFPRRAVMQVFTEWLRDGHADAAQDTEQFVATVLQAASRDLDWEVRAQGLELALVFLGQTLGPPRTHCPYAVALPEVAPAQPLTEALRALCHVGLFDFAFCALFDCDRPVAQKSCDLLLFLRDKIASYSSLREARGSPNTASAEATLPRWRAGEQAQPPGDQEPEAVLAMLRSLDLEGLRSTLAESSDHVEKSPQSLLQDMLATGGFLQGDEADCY
UniProt Q6NXS1: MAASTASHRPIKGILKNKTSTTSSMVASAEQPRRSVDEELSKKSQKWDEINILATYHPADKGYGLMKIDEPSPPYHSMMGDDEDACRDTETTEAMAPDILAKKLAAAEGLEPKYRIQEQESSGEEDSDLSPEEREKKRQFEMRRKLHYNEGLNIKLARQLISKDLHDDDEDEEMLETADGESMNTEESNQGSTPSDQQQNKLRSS
UniProt Q6EEV6: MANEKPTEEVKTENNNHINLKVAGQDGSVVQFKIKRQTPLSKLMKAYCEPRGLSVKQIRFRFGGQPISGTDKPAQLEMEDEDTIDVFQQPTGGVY
UniProt Q68EM7: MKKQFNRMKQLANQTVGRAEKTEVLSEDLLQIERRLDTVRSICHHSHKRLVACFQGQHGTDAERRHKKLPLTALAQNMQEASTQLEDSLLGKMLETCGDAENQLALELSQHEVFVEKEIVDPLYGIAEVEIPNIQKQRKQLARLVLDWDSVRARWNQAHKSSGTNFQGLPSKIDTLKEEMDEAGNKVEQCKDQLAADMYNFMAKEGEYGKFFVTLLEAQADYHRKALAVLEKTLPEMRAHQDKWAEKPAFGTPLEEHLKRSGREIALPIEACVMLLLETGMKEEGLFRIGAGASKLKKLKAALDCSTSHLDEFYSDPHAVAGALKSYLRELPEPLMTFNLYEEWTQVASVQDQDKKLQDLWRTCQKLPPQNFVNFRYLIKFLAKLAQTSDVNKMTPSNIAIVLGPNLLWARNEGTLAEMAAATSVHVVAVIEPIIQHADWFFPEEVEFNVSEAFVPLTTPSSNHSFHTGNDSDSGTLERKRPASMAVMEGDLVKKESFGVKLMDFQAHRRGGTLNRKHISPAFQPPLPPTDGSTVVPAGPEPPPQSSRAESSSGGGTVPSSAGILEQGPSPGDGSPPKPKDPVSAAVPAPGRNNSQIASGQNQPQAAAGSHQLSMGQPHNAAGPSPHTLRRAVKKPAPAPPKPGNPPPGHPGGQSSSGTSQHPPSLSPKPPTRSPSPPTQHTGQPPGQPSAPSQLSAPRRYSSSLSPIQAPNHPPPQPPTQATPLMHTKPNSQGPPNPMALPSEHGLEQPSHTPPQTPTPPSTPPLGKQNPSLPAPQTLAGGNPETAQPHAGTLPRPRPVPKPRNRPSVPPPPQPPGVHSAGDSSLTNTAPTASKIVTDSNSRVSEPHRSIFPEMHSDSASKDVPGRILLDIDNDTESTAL
UniProt Q6AHZ1: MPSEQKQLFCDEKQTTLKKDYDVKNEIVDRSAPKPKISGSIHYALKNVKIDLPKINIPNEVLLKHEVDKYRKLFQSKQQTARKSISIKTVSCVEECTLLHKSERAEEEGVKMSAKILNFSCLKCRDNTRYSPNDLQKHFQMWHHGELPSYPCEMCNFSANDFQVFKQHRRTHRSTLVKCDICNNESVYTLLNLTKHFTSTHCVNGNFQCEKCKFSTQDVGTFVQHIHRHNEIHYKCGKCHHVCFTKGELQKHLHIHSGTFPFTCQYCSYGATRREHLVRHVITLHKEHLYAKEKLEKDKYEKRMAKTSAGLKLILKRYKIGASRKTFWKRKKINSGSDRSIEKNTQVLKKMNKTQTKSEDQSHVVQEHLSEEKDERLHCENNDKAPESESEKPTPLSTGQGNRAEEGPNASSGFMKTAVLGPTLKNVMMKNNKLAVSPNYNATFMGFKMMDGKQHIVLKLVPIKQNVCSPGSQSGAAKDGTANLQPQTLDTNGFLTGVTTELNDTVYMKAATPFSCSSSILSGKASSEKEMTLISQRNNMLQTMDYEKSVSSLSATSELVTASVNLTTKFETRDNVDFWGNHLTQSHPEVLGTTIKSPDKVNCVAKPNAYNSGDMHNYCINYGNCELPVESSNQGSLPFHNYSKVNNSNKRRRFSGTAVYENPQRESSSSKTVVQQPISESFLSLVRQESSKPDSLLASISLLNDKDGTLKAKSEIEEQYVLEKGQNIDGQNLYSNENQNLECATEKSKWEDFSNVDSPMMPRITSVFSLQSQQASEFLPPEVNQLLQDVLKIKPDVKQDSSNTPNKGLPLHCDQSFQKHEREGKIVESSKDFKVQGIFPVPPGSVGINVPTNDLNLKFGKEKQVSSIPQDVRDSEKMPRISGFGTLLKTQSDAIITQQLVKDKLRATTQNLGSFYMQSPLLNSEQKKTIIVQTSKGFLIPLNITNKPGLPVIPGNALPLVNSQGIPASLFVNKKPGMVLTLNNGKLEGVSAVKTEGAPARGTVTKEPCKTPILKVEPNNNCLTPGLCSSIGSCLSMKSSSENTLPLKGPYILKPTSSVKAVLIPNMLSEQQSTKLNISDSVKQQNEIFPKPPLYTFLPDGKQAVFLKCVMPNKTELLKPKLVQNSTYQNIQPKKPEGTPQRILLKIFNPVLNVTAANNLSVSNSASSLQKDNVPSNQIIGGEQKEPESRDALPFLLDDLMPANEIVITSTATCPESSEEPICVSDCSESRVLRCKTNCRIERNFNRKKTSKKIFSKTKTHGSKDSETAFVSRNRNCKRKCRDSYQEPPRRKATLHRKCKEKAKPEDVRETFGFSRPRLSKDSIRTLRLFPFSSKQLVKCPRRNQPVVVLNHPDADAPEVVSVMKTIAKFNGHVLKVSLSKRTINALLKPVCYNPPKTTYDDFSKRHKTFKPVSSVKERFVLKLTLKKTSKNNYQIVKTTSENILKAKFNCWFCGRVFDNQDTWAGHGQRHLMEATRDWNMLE
UniProt Q6PH81: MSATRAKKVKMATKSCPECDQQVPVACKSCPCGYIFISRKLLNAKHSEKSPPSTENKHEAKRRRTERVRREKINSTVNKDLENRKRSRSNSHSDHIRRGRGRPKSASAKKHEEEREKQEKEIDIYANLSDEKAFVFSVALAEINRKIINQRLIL
UniProt Q68DC2: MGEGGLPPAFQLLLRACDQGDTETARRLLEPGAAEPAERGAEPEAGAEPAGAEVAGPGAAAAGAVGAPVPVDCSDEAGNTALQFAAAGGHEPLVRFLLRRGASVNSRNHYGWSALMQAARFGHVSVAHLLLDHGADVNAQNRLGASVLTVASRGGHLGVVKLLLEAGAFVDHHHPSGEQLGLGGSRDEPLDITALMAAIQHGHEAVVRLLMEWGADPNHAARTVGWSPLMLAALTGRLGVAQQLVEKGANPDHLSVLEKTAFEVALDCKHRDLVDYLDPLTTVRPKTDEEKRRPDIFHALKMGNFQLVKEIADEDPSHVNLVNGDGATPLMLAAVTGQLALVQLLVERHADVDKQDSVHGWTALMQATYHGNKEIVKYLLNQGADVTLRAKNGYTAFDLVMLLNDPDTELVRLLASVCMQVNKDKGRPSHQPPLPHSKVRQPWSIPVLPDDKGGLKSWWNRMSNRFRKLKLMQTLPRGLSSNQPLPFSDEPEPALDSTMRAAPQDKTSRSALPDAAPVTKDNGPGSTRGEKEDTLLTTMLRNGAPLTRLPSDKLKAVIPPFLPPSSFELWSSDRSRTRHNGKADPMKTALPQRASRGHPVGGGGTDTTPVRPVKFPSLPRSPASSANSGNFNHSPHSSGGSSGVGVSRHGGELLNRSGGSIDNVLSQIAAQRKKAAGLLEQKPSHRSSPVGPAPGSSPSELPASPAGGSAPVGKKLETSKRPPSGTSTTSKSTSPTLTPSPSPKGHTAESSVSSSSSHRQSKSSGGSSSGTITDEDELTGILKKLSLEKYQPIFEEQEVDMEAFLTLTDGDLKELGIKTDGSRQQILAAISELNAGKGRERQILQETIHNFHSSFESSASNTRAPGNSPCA
UniProt Q66K74: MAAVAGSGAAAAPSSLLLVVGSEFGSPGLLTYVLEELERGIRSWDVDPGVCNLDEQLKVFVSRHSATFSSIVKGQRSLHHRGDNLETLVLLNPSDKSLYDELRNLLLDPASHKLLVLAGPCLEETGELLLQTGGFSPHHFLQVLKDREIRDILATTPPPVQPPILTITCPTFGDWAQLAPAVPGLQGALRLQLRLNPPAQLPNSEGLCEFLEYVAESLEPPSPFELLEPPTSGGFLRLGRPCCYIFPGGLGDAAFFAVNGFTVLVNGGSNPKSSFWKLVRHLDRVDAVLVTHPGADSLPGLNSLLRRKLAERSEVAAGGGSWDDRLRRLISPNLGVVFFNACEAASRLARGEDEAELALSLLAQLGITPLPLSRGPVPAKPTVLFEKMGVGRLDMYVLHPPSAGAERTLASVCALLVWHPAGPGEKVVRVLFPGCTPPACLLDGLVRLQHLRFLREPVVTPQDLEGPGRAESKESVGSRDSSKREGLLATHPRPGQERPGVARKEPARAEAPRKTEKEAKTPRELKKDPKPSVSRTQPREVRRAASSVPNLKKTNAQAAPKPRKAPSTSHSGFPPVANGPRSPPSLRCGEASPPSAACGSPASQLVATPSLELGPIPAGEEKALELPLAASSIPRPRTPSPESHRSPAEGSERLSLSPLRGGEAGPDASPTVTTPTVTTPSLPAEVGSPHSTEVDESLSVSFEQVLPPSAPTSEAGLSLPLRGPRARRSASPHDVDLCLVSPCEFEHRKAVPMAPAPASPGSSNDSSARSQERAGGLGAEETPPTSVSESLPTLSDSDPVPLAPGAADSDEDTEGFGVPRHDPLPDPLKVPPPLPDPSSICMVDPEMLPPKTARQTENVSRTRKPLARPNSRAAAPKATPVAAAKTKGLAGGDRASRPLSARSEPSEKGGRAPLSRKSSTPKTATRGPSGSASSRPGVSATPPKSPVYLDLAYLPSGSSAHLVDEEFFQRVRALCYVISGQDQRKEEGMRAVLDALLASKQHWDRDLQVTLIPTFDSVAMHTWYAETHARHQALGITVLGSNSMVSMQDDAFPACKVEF
UniProt Q6Q788: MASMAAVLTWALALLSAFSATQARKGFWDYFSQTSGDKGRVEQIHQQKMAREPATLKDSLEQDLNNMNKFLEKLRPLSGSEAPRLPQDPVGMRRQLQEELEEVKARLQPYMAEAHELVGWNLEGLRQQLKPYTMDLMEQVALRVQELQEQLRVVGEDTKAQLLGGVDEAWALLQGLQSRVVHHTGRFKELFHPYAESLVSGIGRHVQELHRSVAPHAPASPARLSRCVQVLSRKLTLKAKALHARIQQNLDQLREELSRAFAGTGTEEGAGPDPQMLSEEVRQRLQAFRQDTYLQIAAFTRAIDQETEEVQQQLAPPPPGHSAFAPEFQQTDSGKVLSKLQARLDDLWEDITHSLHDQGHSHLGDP
UniProt Q6IBS0: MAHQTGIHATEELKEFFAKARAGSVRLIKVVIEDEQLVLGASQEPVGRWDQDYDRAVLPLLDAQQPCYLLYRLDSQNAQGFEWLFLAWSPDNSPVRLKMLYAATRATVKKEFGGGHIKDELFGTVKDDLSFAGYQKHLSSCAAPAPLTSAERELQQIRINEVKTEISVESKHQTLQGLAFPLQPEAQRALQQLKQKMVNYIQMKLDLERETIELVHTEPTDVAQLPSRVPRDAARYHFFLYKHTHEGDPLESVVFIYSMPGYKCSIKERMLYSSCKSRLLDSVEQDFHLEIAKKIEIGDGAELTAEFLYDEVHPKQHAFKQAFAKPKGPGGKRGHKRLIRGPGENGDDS

These targets were tested with Cc1nc(Nc2ncc(C(=O)Nc3c(C)cccc3Cl)s2)cc(N2CCN(CCO)CC2)n1 [dasatinib] (assay: log2 fold change of tryptic peptide abundance, ligand vs vehicle (limited proteolysis) (log2 ratio); higher = more trypsin-susceptible (destabilized)). Conditions: ligand concentration: 5 uM; sample: K562 cleared lysate.
“REEP3 (peptide sequence: GYETMVNFGR, peptide start residue: 114) (UniProt Q6NUK4)” was tested, and the log2 fold change was 0.245. “UniProt Q6PJG6 (peptide sequence: SCDLLLFLRDK, peptide start residue: 719)” gave a log2 fold change of -0.421. In the case of “TET2 (peptide sequence: FHQAESHLK, peptide start residue: 572) (UniProt Q6N021)”, the log2 fold change is reported as -0.493. In the case of “PRPF38B (peptide sequence: DGKEGAEEIDR, peptide start residue: 243) (UniProt Q5VTL8)”, the log2 fold change is reported as -0.215. Work on “UniProt Q6NXS1 (peptide sequence: KLAAAEGLEPK, peptide start residue: 103)” yielded a log2 fold change of 0.0913. “UniProt Q6EEV6 (peptide sequence: VAGQDGSVVQFK, peptide start residue: 22)” gave a log2 fold change of 0.0461. Work on “ATL3 (peptide sequence: DAVVGRPSMDKK, peptide start residue: 528) (UniProt Q6DD88)” yielded a log2 fold change of 0.0271. Work on “UniProt Q5VV17 (peptide sequence: LLLHGPDPVPGAAGSAAAPR, peptide start residue: 124)” yielded a log2 fold change of 0.105. Work on “ATAD2 (peptide sequence: LITNTAEAVLQK, peptide start residue: 176) (UniProt Q6PL18)” yielded a log2 fold change of -0.33. “ZNF746 (peptide sequence: MLHTGERPFPCTECEKR, peptide start residue: 530) (UniProt Q6NUN9)” was tested, and the log2 fold change was -0.815. “ZC3H14 (peptide sequence: RIPVLSPKPAVAPPAPPSSSQLCR, peptide start residue: 660) (UniProt Q6PJT7)” was tested, and the log2 fold change was -0.564. Work on “FBXW9 (peptide sequence: QLGTESNQVLIK, peptide start residue: 204) (UniProt Q5XUX1)” yielded a log2 fold change of -0.568. For “ZNF691 (peptide sequence: EHGQESLSDELQETHPK, peptide start residue: 70) (UniProt Q5VV52)”, the log2 fold change was 0.433. Target “ARHGAP11A (peptide sequence: SSFSQQSTCVVTNLSKPRPMR, peptide start residue: 761) (UniProt Q6P4F7)” has a log2 fold change of -0.455. “ARHGAP17 (peptide sequence: WAEKPAFGTPLEEHLKR, peptide start residue: 244) (UniProt Q68EM7)” showed a log2 fold change of -0.663. With “UniProt Q6P280 (peptide sequence: HQRIHTDDK, peptide start residue: 524)” the log2 fold change was 0.21. For “UniProt Q6PGQ7 (peptide sequence: DVIVPSPWTDHEGK, peptide start residue: 107)”, the log2 fold change was -0.319. In the case of “SLC27A4 (peptide sequence: ILSFVYPIR, peptide start residue: 409) (UniProt Q6P1M0)”, the log2 fold change is reported as -0.116. “UniProt Q6S8J3 (peptide sequence: QEYDESGPSIVHRKCF, peptide start residue: 360)” showed a log2 fold change of 0.288. For “UniProt Q6AHZ1 (peptide sequence: AEEGPNASSGFMK, peptide start residue: 404)”, the log2 fold change was 0.185. Target “SMARCD3 (peptide sequence: MADKILPQR, peptide start residue: 128) (UniProt Q6STE5)” has a log2 fold change of 0.857. “C16orf87 (peptide sequence: AFVFSVALAEINRK, peptide start residue: 133) (UniProt Q6PH81)” gave a log2 fold change of 0.0929. Work on “KANK2 (peptide sequence: QECQLSR, peptide start residue: 560) (UniProt Q63ZY3)” yielded a log2 fold change of 0.344. With “DENND4C (peptide sequence: LFDRPQELKLCFSR, peptide start residue: 718) (UniProt Q5VZ89)” the log2 fold change was -0.5. “ANKS6 (peptide sequence: ACDQGDTETARR, peptide start residue: 16) (UniProt Q68DC2)” showed a log2 fold change of 0.673. With “KLHDC10 (peptide sequence: FIQSCPIIR, peptide start residue: 69) (UniProt Q6PID8)” the log2 fold change was 0.231. Target “UniProt Q5VWQ0 (peptide sequence: GRPSQEPPLAPPHR, peptide start residue: 101)” has a log2 fold change of -0.0934. Target “UniProt Q69YN4 (peptide sequence: FFTPPASK, peptide start residue: 1706)” has a log2 fold change of -0.162. For “NIPBL (peptide sequence: NLYNNILSDKNSSVNLK, peptide start residue: 2214) (UniProt Q6KC79)”, the log2 fold change was 0.407. Work on “MAP1S (peptide sequence: SLYDELR, peptide start residue: 97) (UniProt Q66K74)” yielded a log2 fold change of -0.432. “UniProt Q6IQ49 (peptide sequence: ARVVNTDHGSPEQLQIPVTDSGR, peptide start residue: 269)” showed a log2 fold change of -0.182. “TRAF7 (peptide sequence: LSEDLMEFR, peptide start residue: 347) (UniProt Q6Q0C0)” showed a log2 fold change of -0.362. “TAF3 (peptide sequence: VTTHIPQTPVRPETPNR, peptide start residue: 326) (UniProt Q5VWG9)” gave a log2 fold change of 0.25. “MBNL2 (peptide sequence: VIACFDSLK, peptide start residue: 50) (UniProt Q5VZF2)” showed a log2 fold change of -0.0546. With “UniProt Q6Q788 (peptide sequence: PLSGSEAPR, peptide start residue: 76)” the log2 fold change was -0.0638. “SWSAP1 (peptide sequence: GTGTTLDPMR, peptide start residue: 51) (UniProt Q6NVH7)” showed a log2 fold change of 0.329. Target “UniProt Q5VT97 (peptide sequence: HYSFSDQPK, peptide start residue: 665)” has a log2 fold change of -0.493. In the case of “TWF2 (peptide sequence: AHQTGIHATEELK, peptide start residue: 2) (UniProt Q6IBS0)”, the log2 fold change is reported as -0.858.
